Assay results published in article PMC3141039.
Results are given in words; binding and its absence hold for the method and conditions named. Binding can be weak; no strength is given.

Amino acid sequences for entries named in this document (tags omitted). A change or cut given only in a name is not applied to a line headed by its entry.
UniProt Q5SJ79: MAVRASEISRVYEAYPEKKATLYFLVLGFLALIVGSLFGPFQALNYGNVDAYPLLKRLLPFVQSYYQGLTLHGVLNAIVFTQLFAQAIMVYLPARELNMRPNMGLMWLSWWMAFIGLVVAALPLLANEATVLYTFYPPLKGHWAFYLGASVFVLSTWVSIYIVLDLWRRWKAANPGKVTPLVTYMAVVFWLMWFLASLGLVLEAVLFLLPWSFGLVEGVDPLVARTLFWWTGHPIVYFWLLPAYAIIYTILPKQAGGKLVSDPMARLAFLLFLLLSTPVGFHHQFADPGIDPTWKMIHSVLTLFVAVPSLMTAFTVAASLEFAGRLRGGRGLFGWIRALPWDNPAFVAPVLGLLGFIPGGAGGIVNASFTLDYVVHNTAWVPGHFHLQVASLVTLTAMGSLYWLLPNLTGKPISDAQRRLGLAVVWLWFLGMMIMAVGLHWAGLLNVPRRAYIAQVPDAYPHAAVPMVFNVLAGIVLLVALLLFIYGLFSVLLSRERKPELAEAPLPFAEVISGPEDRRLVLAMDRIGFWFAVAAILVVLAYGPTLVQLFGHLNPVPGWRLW
UniProt Q5SJ80: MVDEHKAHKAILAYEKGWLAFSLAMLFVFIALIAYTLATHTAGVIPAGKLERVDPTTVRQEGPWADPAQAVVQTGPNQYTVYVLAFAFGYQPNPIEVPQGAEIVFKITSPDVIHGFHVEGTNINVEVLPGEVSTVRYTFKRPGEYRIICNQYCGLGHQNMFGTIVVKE

Biological target: ba3 cytochrome c oxidase subunit I, A120F mutant (Thermus thermophilus) (UniProt Q5SJ79)
Experiment: crystal structure; three-subunit enzyme crystallised in lipidic cubic phase (monoolein), 40-45% PEG 400, 1.0-1.6 M NaCl, 100 mM sodium cacodylate pH 5.5-6.5, 20°C; refined at 1.8 Å, space group C2, one molecule per asymmetric unit; both purified

binding: binds
Substance: ba3 cytochrome c oxidase subunit II (from UniProt Q5SJ80)
